According to PMC11335225:
No constants are given. Whether binding was seen depends on the method and setting. In cells and extracts the contact can be indirect. These calls come from enrichment with a bait or labelling near it, and not all partners need be listed. For some assays here: Where a sequence is shown, tags or fusion partners need not be part of it.

By UniProt entry, the sequences of proteins in these tests, tags left out. Where a name states a change or a piece, a line headed by the entry shows the natural chain unless it says otherwise.
UniProt Q6PIU1: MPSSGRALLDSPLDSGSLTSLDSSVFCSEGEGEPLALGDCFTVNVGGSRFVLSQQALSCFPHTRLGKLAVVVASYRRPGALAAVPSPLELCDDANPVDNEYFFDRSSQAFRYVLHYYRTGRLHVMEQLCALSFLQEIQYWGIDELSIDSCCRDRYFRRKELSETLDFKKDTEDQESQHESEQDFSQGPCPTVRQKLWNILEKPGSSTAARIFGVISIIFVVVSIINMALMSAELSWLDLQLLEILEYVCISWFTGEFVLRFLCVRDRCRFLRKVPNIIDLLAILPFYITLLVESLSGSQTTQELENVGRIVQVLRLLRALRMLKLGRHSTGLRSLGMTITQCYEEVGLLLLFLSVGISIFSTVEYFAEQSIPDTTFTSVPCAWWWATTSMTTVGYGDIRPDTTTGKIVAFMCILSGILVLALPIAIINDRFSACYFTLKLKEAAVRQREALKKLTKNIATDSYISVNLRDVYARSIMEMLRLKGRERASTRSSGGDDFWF
UniProt O43526: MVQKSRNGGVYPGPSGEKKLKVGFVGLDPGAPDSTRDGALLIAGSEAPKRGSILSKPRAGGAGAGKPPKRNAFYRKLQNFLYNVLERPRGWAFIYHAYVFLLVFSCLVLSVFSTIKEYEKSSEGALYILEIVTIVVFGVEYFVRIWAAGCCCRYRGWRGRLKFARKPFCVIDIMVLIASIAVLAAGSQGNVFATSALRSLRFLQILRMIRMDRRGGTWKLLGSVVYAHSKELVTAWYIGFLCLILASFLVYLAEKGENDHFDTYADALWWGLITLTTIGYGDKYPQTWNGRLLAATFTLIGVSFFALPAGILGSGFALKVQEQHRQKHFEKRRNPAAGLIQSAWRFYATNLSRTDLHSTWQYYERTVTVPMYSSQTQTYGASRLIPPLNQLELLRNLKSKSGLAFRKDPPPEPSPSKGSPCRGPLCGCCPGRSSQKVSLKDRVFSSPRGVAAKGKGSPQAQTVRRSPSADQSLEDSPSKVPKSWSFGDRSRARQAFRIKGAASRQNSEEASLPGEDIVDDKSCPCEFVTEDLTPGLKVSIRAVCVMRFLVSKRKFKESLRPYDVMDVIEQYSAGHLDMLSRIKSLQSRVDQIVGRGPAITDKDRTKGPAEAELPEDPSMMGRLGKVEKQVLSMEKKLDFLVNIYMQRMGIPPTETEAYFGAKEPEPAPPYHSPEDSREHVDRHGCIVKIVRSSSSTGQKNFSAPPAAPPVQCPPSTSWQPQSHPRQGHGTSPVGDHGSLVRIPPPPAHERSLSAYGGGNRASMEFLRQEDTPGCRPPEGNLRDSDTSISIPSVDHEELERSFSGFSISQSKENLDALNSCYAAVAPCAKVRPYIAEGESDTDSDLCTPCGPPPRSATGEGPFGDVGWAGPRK

Tests used:
[1] = biological target: BioID2-HA-tagged KV8.1 (UniProt Q6PIU1); experiment: proximity labelling; BioID: KVS-BioID2-HA and flag-tagged KV7.2 co-expressed in HEK293 cells, 50 uM biotin for 18-24 h, RIPA lysis, biotinylated proteins purified on magnetic streptavidin beads, anti-flag western blot
[2] = biological target: T1, BioID2-HA-tagged KV8.2 (UniProt Q8TDN2); experiment: as above
T1 sequence: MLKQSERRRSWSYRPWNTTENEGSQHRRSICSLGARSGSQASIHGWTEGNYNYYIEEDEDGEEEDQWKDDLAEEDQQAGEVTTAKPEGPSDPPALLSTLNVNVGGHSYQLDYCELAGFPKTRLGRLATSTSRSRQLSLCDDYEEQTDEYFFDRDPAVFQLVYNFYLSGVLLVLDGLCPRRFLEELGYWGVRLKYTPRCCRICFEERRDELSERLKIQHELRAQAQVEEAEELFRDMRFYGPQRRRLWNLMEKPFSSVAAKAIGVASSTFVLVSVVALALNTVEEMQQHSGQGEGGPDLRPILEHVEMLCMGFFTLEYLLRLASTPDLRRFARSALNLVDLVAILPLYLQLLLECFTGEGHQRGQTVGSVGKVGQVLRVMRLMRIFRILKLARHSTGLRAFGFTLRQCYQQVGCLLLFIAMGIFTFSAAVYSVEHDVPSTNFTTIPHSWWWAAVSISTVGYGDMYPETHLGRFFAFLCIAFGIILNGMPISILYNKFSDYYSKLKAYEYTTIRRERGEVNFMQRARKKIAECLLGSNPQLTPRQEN

- binding [1]: binds
- binding [2]: binds
Substance: flag-tagged KV7.2 channel subunit (from UniProt O43526 1-872)
